# Screening data, single-dose tests

Amino acid sequences for entries named in this document (tags omitted). Residues count along the entry.
UniProt Q8IDJ8, 1-583: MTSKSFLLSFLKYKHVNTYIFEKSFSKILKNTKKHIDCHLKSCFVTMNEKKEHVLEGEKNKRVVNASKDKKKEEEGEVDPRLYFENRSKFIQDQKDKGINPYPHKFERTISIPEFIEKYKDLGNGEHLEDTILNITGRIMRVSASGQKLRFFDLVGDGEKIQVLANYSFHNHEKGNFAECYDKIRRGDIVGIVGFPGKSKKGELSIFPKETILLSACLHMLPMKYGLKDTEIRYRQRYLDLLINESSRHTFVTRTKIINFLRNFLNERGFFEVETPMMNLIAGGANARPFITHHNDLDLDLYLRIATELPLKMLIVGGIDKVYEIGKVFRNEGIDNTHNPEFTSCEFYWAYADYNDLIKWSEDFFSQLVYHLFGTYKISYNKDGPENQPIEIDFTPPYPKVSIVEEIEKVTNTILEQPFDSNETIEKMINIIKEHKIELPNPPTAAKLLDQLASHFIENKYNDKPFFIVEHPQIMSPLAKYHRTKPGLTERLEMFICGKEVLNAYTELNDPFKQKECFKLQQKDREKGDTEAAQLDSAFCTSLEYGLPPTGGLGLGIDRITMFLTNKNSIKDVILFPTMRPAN

Source: ChEMBL document CHEMBL3988442, “University of Dundee, Small-Polar-MMV Screening Library” (2021).

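Enzyme assay of the cytosolic lysyl-tRNA synthetase in 384-well plates, read by luminescence. Target: Lysine-tRNA ligase, Plasmodium falciparum 3D7 (UniProt Q8IDJ8). Tested at 30 µM. Higher reads as stronger inhibition, judged from the few compounds that gave an IC50. Of about 69,000 compounds tested this way, about 49 (0.071%) reached 50% or more in at least one test.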

Each number is a percent effect as filed. How 0% and 100% were set is not recorded. Most values in the screen are low, and negative values occur. This is an unselected part of the compounds tested.

CCC(O)c1nc2c([nH]1)CC(C)(C)CNC2=O (stereo not shown) gave 2.559%.
CC(C)c1cc(NC(=O)CNC2CCc3nc(C(C)C)nn3C2)on1 (stereo not shown) gave 3.136%.
COc1ccc(C(=O)O)c(OCC(=O)NC(C)c2ccc(F)cc2)c1 (stereo not shown) gave -0.9938%.
Cc1noc(C)c1CNC(=O)NCCC(=O)N1CCCc2ccccc21 gave 0.6262%.
Cc1ccc(NC2CCN(C(=O)CCCc3ccccn3)CC2)cc1 gave 0.2449%.
CC1CN(C)CCN1C(=O)Nc1nc(-c2cccn2C)cs1 (stereo not shown) gave 2.121%.
CCN1c2ccc(-c3cncn3CC(=O)NC(C)(C)C)cc2CC1C (stereo not shown) gave 5.136%.
Cc1cnccc1-n1nc(C(C)C)nc1CCN(C)S(C)(=O)=O gave 2.684%.
O=C(NCCCOCC1CC1)Nc1ccc(F)cc1 gave 4.766%.
O=C(NCCOc1ccccc1)c1ccc2c(c1)C(=O)NC2=O gave -0.6177%.
CC(C(=O)Nc1ccc2ccccc2c1)N1CCC(n2ccnc2)CC1 (stereo not shown) gave 3.742%.
CCN1CCCc2cc(-c3cncn3C(C)CN3CCOCC3)ccc21 (stereo not shown) gave 1.903%.
O=C(NCCn1ccc(-c2ccncc2)n1)c1ccc2c(c1)OCO2 gave -2.85%.
CC/C=C(/C)C(=O)NCc1ccnc(OC)c1 gave 0.9549%.
CCN1CC2(CCC1=O)CCN(C(=O)C(O)c1cccc(Cl)c1)CC2 (stereo not shown) gave 2.946%.
O=C(c1cccnc1)N1CCCC(c2cc(C(F)F)n3ncnc3n2)C1 (stereo not shown) gave 3.835%.
CC(C)N1CCCn2c(nc(CNC(=O)c3nccn3C)cc2=O)C1 gave 3.567%.
CC(c1nc(C2CC2)no1)N(C)Cc1ccc2c(c1)OCCO2 (stereo not shown) gave 1.309%.
CN(C)CC(=O)N1CCC2(CCN(Cc3cccc(F)c3)CC2)C1 gave 5.748%.
Cc1nc(CN2CCC3(CCCN(Cc4ccncc4)C3)C2=O)cs1 (stereo not shown) gave -0.07076%.
CCc1nnc2n1CCN(CC(=O)Nc1cc(C(C)(C)C)nn1C)C2 gave 3.675%.
O=C(NCc1cccnc1-n1cncn1)c1cncc(Br)c1 gave 5.001%.
O=C1CCCN1Cc1ncn2c1CN(C(=O)Cc1cccs1)CCC2 gave -1.343%.
O=C(C(c1ccccc1)S(=O)(=O)c1ccccn1)N1CCCC1 (stereo not shown) gave 0.3641%.
CC(C)Cn1cncc1CNC1CCSCC1 gave -1.626%.
CCc1cc(NC2CCS(=O)(=O)CC2)nc(N2CCCCC2)n1 gave -1.775%.
CCn1c(C)cc(C(=O)NCc2cccc(NS(C)(=O)=O)c2)c1C gave -3.638%.
CC(C)N(C)CC(=O)NC1CCc2nccn2C1 (stereo not shown) gave -4.894%.
CC(C)c1nc(CN2CCCN(Cc3nnc(C4CC4)o3)CC2)no1 gave -1.783%.
COCCN1CCN(Cc2nc3c(s2)CCCC3)[C@H]2CS(=O)(=O)C[C@H]21 gave 2.486%.
Cc1nc(N(C)C)ncc1C(=O)N[C@@H]1CCc2ccccc21 gave 7.577%.
Cc1nc(C)n(CC2CCCN(CCC(=O)Nc3cc(C)on3)C2)n1 (stereo not shown) gave -1.143%.
c1cc(-c2noc(CN3CCc4c(ncn4C4CC4)C3)n2)cs1 gave -0.8215%.
O=C(Nc1nc(-c2ccccc2)ns1)N1CCC(F)CC1 gave 5.879%.
Cc1nn(C)c(=O)c2nn(-c3cccc(Cl)c3)c(C)c12 gave 4.521%.

2 of the entries, repeated:

| Compound | effect |
|---|---|
| `Cc1nc(C)n(CC2CCCN(CCC(=O)Nc3cc(C)on3)C2)n1` (stereo not shown) | -1.143 |
| `CCN1c2ccc(-c3cncn3CC(=O)NC(C)(C)C)cc2CC1C` (stereo not shown) | 5.136 |